[ ]: non-standard residue; d: D form. The star is where a group is joined. d(hPhe) = N[C@H](CCc1ccccc1)C(=O)O; d2Thi = N[C@H](Cc1cccs1)C(=O)O; Tos = Cc1ccc(S(=O)(=O)*)cc1; Nle = CCCC[C@H](N)C(=O)O
Test: general procedure: Fmoc solid-phase peptide synthesis; Rink amide-type resin, 0.3-0.6 mmol/g
Settings: whole synthesis, HPLC

| Substance | purity (crude or final not stated) [%] |
| --- | --- |
| Ac-MeNle-Ala-His-DHomoPhe-Arg-Trp-NH2 | 75 |
| Ac-Nle-Ala-His-Dphe-Arg-Trp-NH2 | 81 |
| Ac-Nle-Ala-His-Dthi-Arg-Trp-NH2 | 86 |
| Ac-Nle-Ala-His-L2, Nap-Lys-Trp-NH2 | 74 |
| Ac-[Nle]AH[d2Thi]KW-NH2 | 86 |
| Ac-[Nle]AH[d(hPhe)]RW-NH2 | 88 |
| Ac-[Nle]AH[dF]KW-NH2 | 88 |
| BzlSO2-Nle-Ala-His-DPhe-Arg-Trp-NH2 | 96 |
| BzlSO2-Nle-Ala-His-DPhe-Lys-Trp-NH2 | 84 |
| BzlSO2-Nle-Ala-His-DThi-Lys-Trp-NH2 | 94 |
| BzlSO2-Nle-Ala-His-DpNO2Phe-Lys-Trp-NH2 | 74 |
| PyrProp-Nle-Ala-His-DpNO2Phe-Arg-Trp-NH2 | 86 |
| PyrProp-Nle-Ala-His-DpNO2Phe-Lys-Trp-NH2 | 84 |
| Tos-[Nle]AH[dF]RW-NH2 | 91 |

Source: patent US7268108B2 (Institut European de Biologie Cellulaire, priority 2002, dated 2007)
